In article PMC11099142:
Read-outs that look alike come from different tables or passages of the source. These are yes or no findings as the source states them, for the method shown. In cells and extracts the contact can be indirect. Some entries that bind do so weakly or less than the wild type.

Chains of the proteins cited; added tags and fusions are not shown.
UniProt P01106: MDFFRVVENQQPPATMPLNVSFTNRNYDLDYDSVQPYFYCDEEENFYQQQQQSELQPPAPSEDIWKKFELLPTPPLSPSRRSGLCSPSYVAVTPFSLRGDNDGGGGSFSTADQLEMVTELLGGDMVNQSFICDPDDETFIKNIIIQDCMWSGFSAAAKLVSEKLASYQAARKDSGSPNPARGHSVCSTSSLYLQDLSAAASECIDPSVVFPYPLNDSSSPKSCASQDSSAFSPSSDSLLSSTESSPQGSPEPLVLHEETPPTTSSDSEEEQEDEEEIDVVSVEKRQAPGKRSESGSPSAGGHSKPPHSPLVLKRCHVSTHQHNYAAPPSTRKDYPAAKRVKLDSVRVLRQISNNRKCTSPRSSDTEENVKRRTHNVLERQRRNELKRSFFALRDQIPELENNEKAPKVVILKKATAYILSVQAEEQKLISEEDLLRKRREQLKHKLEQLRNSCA
UniProt P08047: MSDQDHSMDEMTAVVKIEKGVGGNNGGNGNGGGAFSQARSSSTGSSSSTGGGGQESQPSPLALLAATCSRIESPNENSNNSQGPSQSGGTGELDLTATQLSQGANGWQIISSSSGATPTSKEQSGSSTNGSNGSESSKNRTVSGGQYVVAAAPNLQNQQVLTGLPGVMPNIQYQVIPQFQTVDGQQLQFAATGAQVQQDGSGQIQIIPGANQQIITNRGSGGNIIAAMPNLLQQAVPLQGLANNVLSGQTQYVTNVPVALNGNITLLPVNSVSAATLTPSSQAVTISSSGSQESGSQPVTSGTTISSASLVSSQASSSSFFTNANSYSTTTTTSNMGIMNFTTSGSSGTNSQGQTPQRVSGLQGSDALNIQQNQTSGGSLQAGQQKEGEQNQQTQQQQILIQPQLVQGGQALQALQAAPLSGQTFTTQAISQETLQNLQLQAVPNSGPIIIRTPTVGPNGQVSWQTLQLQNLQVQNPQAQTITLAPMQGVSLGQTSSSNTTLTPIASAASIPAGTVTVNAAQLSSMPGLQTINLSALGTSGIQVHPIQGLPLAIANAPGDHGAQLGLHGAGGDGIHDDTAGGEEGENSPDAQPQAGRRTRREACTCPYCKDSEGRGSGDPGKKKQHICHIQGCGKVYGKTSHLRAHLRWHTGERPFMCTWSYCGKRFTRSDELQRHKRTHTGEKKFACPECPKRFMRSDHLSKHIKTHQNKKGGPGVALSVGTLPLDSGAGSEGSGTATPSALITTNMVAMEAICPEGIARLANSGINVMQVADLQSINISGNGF
UniProt Q13547: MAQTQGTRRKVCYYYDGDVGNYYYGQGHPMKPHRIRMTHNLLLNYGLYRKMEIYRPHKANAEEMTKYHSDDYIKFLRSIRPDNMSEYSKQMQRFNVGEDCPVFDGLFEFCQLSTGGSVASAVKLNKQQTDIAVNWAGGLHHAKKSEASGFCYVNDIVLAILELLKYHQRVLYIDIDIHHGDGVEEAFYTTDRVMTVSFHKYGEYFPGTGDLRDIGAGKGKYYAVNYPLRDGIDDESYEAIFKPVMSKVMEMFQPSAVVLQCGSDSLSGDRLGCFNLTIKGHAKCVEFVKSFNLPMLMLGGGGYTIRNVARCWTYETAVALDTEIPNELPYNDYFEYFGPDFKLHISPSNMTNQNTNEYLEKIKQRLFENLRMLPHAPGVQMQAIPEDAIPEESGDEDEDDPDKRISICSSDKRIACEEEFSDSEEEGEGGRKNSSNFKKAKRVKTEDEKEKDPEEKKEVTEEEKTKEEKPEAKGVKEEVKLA

Key:
[1] = target: c-Myc (human (endogenous in TOV-112D)) (UniProt P01106); experiment: co-IP; TOV-112D PT-res cell lysates in HNTG buffer, treated or not with CDDP; primary antibody overnight at 4 °C, protein A or G agarose; western blot
[2] = target: c-Myc (human (endogenous in TOV-112D)) (UniProt P01106); experiment: as above; remark: listed apart in the source
[3] = target: SP1 (human (endogenous in TOV-112D)) (UniProt P08047); experiment: co-IP; IP of SP1 from formaldehyde-cross-linked, MNase-digested chromatin (ChIP kit, magnetic beads) of TOV-112D PT-sen cells, treated or not with CDDP (50 uM, 16 h); western blot of SP1-bound proteins

binding [1] | binding [2] | binding [3] | Substance
binds weakly | no binding (condition: in PT-res cells) |  | HDAC1 (from UniProt Q13547 1-482) (enzyme)
 | no binding (condition: in PT-res cells) |  | SP1 (from UniProt P08047 1-785)
 |  | binds | c-Myc (from UniProt P01106 1-454) (other; other documents disagree on this pair)
